Measured values as given in the supplement of paper PMC12819154, “High-throughput peptide-centric local stability assay extends protein–ligand identification to membrane proteins, tissues and bacteria” (Nature Structural & Molecular Biology, 2025).
Some of the results follow. Most entries show no effect beyond the scatter of the controls.

By UniProt entry, the sequences of proteins in these tests, tags left out. Where a name states a change or a piece, a line headed by the entry shows the natural chain unless it says otherwise.
UniProt Q9ULP9: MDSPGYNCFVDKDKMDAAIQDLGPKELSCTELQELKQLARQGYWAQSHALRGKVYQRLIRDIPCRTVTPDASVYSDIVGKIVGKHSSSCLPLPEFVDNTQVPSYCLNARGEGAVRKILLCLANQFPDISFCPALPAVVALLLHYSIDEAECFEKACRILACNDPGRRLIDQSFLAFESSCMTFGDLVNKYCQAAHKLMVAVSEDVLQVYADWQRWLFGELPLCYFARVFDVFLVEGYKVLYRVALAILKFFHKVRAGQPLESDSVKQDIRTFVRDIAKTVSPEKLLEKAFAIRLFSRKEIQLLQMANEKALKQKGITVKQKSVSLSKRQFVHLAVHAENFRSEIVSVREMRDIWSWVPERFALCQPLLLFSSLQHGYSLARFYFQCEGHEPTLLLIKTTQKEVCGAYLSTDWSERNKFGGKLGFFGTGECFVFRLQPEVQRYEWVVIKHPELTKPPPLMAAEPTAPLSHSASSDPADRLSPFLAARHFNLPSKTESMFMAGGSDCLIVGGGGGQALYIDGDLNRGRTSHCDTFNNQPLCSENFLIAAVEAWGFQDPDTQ
UniProt Q9UM82: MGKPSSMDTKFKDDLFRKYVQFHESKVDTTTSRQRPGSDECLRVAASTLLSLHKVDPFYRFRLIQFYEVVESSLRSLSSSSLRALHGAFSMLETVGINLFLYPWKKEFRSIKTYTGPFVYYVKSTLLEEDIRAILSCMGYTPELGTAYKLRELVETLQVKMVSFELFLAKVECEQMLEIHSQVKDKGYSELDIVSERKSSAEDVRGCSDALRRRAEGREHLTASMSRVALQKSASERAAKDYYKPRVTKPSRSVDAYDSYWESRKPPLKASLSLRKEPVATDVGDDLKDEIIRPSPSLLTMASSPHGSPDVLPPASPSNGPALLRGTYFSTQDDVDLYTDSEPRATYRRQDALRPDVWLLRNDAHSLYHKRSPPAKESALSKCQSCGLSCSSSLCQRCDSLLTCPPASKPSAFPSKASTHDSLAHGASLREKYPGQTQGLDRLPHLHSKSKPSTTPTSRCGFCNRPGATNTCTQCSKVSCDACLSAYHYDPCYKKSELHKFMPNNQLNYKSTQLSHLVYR
UniProt Q9UPG8: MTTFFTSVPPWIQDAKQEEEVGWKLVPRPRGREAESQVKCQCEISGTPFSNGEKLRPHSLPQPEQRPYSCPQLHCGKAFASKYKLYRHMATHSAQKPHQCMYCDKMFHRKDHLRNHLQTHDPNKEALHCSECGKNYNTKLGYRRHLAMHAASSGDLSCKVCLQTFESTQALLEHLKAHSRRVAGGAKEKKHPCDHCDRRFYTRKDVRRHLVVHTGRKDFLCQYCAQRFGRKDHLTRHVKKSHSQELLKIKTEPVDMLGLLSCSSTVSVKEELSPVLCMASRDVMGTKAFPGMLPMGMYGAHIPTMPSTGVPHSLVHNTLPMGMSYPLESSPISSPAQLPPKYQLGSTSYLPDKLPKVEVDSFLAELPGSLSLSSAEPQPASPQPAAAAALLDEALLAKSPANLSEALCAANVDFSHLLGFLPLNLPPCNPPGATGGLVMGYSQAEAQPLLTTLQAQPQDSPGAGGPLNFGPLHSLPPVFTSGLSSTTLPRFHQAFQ
UniProt Q9UHR6: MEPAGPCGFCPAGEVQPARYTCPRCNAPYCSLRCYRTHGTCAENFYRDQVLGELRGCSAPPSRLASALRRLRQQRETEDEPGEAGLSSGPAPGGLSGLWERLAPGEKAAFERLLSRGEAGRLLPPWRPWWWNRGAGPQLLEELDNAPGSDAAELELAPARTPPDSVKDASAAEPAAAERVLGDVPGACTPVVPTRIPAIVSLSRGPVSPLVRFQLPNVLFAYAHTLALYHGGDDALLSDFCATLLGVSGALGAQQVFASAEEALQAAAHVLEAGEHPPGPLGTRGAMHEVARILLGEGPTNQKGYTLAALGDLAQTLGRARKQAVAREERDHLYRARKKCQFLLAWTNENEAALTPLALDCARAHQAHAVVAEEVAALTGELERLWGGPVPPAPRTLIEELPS
UniProt Q9UKV5, whole entry: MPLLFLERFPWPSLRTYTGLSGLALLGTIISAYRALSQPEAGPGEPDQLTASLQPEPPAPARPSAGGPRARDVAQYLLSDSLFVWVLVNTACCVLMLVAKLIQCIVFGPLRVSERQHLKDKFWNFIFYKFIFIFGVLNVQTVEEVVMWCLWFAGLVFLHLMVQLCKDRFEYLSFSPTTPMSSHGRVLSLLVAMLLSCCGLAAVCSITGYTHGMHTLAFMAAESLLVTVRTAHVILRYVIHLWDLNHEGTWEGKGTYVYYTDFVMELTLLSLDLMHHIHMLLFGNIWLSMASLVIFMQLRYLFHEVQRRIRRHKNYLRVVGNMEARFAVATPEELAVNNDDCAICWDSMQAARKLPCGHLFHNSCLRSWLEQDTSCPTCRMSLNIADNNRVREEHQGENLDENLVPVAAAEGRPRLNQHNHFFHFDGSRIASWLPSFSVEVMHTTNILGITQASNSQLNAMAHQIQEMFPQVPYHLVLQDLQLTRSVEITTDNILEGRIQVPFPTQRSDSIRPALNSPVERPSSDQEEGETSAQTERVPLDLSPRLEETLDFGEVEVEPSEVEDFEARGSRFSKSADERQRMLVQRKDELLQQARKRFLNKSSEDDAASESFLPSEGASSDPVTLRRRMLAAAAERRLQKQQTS
UniProt Q9UK96: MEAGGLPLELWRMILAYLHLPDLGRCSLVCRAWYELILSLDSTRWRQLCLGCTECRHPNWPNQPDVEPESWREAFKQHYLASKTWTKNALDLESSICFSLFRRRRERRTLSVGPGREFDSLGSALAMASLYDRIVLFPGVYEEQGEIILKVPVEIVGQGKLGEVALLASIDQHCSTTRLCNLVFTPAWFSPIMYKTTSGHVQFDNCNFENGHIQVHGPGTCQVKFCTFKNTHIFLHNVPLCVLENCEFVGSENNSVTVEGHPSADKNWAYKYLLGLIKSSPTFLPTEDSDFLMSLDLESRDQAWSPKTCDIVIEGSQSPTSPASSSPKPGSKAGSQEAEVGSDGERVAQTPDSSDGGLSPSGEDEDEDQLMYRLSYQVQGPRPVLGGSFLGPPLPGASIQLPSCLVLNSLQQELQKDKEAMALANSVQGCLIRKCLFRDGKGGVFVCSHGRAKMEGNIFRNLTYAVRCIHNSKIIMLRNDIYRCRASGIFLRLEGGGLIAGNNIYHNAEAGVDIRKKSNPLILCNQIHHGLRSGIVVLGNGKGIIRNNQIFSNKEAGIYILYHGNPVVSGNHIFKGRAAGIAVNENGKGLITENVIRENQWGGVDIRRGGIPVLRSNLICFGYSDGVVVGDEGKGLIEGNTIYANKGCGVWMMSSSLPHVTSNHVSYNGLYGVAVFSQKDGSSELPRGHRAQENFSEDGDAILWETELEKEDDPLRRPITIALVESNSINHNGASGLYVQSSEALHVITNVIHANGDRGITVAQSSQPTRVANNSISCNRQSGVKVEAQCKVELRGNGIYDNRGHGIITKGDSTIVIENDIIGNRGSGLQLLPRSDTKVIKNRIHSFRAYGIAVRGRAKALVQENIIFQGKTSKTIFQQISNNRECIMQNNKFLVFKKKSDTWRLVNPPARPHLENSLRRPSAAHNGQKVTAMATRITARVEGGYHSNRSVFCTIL
UniProt Q9UKT9: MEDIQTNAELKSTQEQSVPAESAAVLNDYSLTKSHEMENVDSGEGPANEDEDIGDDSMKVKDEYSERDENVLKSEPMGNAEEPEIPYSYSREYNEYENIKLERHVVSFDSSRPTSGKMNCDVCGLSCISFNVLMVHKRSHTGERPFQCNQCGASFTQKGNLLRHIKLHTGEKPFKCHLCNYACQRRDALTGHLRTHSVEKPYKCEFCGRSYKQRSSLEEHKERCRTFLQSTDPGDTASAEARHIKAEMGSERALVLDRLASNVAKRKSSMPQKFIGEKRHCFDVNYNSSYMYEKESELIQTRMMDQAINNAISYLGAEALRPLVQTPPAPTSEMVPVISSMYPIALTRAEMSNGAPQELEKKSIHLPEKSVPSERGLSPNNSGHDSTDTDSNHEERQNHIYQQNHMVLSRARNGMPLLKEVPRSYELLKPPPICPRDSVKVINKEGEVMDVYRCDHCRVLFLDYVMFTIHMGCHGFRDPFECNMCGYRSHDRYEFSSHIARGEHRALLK
UniProt Q9UPU3: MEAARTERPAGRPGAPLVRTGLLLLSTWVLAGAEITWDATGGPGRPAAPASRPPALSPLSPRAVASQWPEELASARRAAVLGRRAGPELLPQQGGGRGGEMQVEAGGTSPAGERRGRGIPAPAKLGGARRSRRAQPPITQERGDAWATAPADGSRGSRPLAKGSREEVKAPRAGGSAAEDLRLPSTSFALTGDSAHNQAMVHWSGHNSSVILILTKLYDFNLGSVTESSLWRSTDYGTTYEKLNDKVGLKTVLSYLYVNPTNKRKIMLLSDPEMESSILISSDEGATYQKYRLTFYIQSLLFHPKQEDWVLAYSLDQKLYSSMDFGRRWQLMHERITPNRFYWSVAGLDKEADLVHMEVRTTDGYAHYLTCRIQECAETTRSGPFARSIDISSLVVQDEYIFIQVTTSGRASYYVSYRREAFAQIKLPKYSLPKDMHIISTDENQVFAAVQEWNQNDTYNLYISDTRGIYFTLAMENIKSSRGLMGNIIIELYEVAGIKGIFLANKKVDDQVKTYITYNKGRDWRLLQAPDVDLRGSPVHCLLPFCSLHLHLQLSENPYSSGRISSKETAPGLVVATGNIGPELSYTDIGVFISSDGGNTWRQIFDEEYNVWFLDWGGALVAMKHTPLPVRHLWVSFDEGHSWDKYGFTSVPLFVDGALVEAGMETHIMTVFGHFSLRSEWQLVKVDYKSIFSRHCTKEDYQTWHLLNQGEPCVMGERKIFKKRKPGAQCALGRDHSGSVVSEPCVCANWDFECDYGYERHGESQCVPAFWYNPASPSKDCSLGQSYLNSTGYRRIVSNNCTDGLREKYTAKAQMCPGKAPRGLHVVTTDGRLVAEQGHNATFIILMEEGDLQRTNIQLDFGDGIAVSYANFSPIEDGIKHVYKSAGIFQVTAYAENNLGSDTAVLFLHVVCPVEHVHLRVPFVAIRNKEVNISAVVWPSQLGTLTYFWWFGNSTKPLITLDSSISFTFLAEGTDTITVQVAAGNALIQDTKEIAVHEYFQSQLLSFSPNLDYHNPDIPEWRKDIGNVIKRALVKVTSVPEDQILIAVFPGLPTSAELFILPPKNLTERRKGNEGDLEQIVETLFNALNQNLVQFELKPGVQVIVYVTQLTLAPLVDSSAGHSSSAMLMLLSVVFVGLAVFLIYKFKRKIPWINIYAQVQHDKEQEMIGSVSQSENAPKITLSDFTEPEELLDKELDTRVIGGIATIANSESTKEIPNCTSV
UniProt Q9UNT1: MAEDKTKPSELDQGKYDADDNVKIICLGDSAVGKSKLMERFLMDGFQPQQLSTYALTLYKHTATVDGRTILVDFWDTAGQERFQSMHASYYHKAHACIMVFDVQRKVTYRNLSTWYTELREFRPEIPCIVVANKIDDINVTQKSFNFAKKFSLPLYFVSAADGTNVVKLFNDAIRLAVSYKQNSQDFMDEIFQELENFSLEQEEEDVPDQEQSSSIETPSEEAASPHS

Compound: Cc1nc(Nc2ncc(C(=O)Nc3c(C)cccc3Cl)s2)cc(N2CCN(CCO)CC2)n1 [dasatinib]
Test: log2 fold change of tryptic peptide abundance, ligand vs vehicle (limited proteolysis) (log2 ratio); higher = more trypsin-susceptible (destabilized)
Conditions: ligand concentration: 5 uM; sample: K562 cleared lysate

| Target | log2 fold change |
| --- | --- |
| TBC1D24 (peptide sequence: ILACNDPGRR, peptide start residue: 158) (UniProt Q9ULP9) | 0.179 |
| UniProt Q9UM82 (peptide sequence: RQDALRPDVWLLR, peptide start residue: 349) | -0.0644 |
| UniProt Q9UPG8 (peptide sequence: KHPCDHCDRR, peptide start residue: 190) | -0.972 |
| C19orf53 (peptide sequence: KNLEVGIR, peptide start residue: 51) (UniProt Q9UNZ5) | -0.246 |
| ZNHIT2 (peptide sequence: CNAPYCSLR, peptide start residue: 25) (UniProt Q9UHR6) | 0.179 |
| UniProt Q9UKZ1 (peptide sequence: LLTAAEQR, peptide start residue: 13) | 0.152 |
| AMFR (peptide sequence: LNQHNHFFHFDGSR, peptide start residue: 415) (UniProt Q9UKV5) | 0.266 |
| UniProt Q9UK96 (peptide sequence: VANNSISCNR, peptide start residue: 771) | 0.903 |
| UniProt Q9UKT9 (peptide sequence: SSLEEHKER, peptide start residue: 214) | 0.582 |
| UniProt Q9UPU3 (peptide sequence: GIPAPAK, peptide start residue: 118) | -0.16 |
| UniProt Q9UNT1 (peptide sequence: AHACIMVFDVQRK, peptide start residue: 94) | 0.077 |

Quoted from the listing.
Entry for C19orf53 (peptide sequence: KNLEVGIR, peptide start residue: 51) (UniProt Q9UNZ5) under log2 fold change: -0.246
Entry for UniProt Q9UPG8 (peptide sequence: KHPCDHCDRR, peptide start residue: 190) under log2 fold change: -0.972
